PubChem BioAssay AID1259308 | NCATS, 2017

Aim: 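Candidate targets for better recombinant protein yield in mammalian cells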 (primary screen)
System: human HEK293 embryonic kidney cells stably expressing firefly luciferase (HEK-CMV-Luc2-Hygro)
Reagent: single siRNA against human genes, 0.8 pmol siRNA per well
Timing: 72 h
Measurement: 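Luciferase light (ONE-Glo) measured on one replicate plate set and viability (CellTiter-Glo) on the other, scaled to a negative control siRNA, with robust z-scores and luciferase per cell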
Reading the numbers: total luciferase, z-score and total luciferase, % of control: higher = more reporter protein produced; luciferase per cell, z-score: higher = more reporter output per viable cell; viable cells, % of control: higher = more viable cells
Active means: 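An siRNA counts as active if its total luciferase robust z-score exceeds 3; genes with two or more such siRNAs out of three were retested with fresh siRNAs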
Calls: active = raised luciferase; inactive = no rise
The deposit covers about 59,000 reagents; shown is an unselected part. About 1,510 of them (2.6%) were called active. 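Calls use total luciferase alone and ignore viability, so some active siRNAs may act by altering cell number.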 Unmarked entries are inactive. Reagents against one gene are numbered here.

no.	Gene	reagent	total luciferase, z-score	total luciferase, % of control	luciferase per cell, z-score	viable cells, % of control
1	CLEC2B (C-type lectin domain family 2 member B)	1	1.34	109	0.685	101
2	CLEC2B (C-type lectin domain family 2 member B)	2	0.886	99.5	0.758	91.1
3	CLEC2B (C-type lectin domain family 2 member B)	3	1.23	106	2	70.2
4	LOC647481 (family with sequence similarity 91 member A1 pseudogene)	1	-2.15	39.2	-1.51	65.2
5	LOC647481 (family with sequence similarity 91 member A1 pseudogene)	2	0.236	86.6	1.3	68.8
6	LOC647481 (family with sequence similarity 91 member A1 pseudogene)	3	0.666	95.1	0.453	94.3
7	G3BP1 (G3BP stress granule assembly factor 1)	1	0.0888	83.7	-0.666	111
8	G3BP1 (G3BP stress granule assembly factor 1)	2	2.9	140	3.73	58.4
9	G3BP1 (G3BP stress granule assembly factor 1)	3	3.8 (active)	157	1.84	108
10	MICU3 (mitochondrial calcium uptake 3)	1	-0.54	71.2	-0.348	87.1
11	MICU3 (mitochondrial calcium uptake 3)	2	0.526	92.3	0.716	85.5
12	MICU3 (mitochondrial calcium uptake 3)	3	-0.306	75.8	-0.653	101
13	CCDC142 (coiled-coil domain containing 142)	1	-1.09	60.2	-1.56	101
14	CCDC142 (coiled-coil domain containing 142)	2	-0.851	65	-0.267	77.9
15	CCDC142 (coiled-coil domain containing 142)	3	-0.129	79.3	0.142	85.4
16	PSMD1 (proteasome 26S subunit, non-ATPase 1)	1	-0.606	69.8	1.86	47.8
17	PSMD1 (proteasome 26S subunit, non-ATPase 1)	2	-0.17	78.5	1.45	59.8
18	PSMD1 (proteasome 26S subunit, non-ATPase 1)	3	-0.793	66.1	1.19	53.9
19	IPPK (inositol-pentakisphosphate 2-kinase)	1	-0.392	74.1	0.222	78.1
20	IPPK (inositol-pentakisphosphate 2-kinase)	2	-1.68	48.5	-2.23	97.5
21	IPPK (inositol-pentakisphosphate 2-kinase)	3	0.681	95.4	1.06	80.6
22	ROR1 (ROR family WNT receptor 1)	1	0.118	84.2	1.56	62.4
23	ROR1 (ROR family WNT receptor 1)	2	-0.0231	81.4	-0.901	115
24	ROR1 (ROR family WNT receptor 1)	3	-0.0105	81.7	-0.715	110
25	PPFIA2 (PPFI scaffold protein A2)	1	-0.135	79.2	-0.637	105
26	PPFIA2 (PPFI scaffold protein A2)	2	0.0875	83.6	-0.353	103
27	PPFIA2 (PPFI scaffold protein A2)	3	-0.951	63	-1.48	104
28	MRPS24 (mitochondrial ribosomal protein S24)	1	0.836	98.5	0.866	87.6
29	MRPS24 (mitochondrial ribosomal protein S24)	2	-0.728	67.4	-0.0594	76.5
30	MRPS24 (mitochondrial ribosomal protein S24)	3	-0.196	78	-0.624	103
31	SP4 (Sp4 transcription factor)	1	0.47	91.2	0.0929	99.5
32	SP4 (Sp4 transcription factor)	2	1.01	102	0.553	98.6
33	SP4 (Sp4 transcription factor)	3	1.15	105	0.873	93
34	ADCY5 (adenylate cyclase 5)	1	1.13	104	1.42	80.1
35	ADCY5 (adenylate cyclase 5)	2	-0.119	79.5	-0.578	103
36	ADCY5 (adenylate cyclase 5)	3	2.5	132	1.33	103

Ordered by “total luciferase, % of control” (ascending): 3 of the entries above.
Gene	reagent	total luciferase, z-score	total luciferase, % of control	luciferase per cell, z-score	viable cells, % of control
MICU3 (mitochondrial calcium uptake 3)	1	-0.54	71.2	-0.348	87.1
G3BP1 (G3BP stress granule assembly factor 1)	2	2.9	140	3.73	58.4
G3BP1 (G3BP stress granule assembly factor 1)	3	3.8 (active)	157	1.84	108

Next results:
no.	Gene	reagent	total luciferase, z-score	total luciferase, % of control	luciferase per cell, z-score	viable cells, % of control
37	CXCL11 (C-X-C motif chemokine ligand 11)	1	1.34	108	1.16	89.2
38	CXCL11 (C-X-C motif chemokine ligand 11)	2	-0.655	68.9	-0.947	98.7
39	CXCL11 (C-X-C motif chemokine ligand 11)	3	-0.759	66.8	-0.545	86.1
40	SLC35E2A	1	-0.124	79.4	-0.207	93.7
41	SLC35E2A	2	2.72	136	1.19	111
42	SLC35E2A	3	-0.415	73.6	-0.27	88.3
43	CHRDL1 (chordin like 1)	1	0.718	96.2	-0.224	114
44	CHRDL1 (chordin like 1)	2	-0.0567	80.8	-0.381	99.8
45	CHRDL1 (chordin like 1)	3	-2.12	39.7	-1.74	70.1
46	SARNP (SAP domain containing ribonucleoprotein)	1	0.564	93.1	1.73	65.9
47	SARNP (SAP domain containing ribonucleoprotein)	2	3.46 (active)	151	2.06	97.8
48	SARNP (SAP domain containing ribonucleoprotein)	3	-0.581	70.3	-0.514	90
49	VGF (VGF nerve growth factor inducible)	1	-0.0564	80.8	0.326	82.8
50	VGF (VGF nerve growth factor inducible)	2	-0.343	75.1	-0.324	91.4
51	VGF (VGF nerve growth factor inducible)	3	1.07	103	0.386	104
52	RXFP3 (relaxin family peptide receptor 3)	1	1.05	103	1.55	76.3
53	RXFP3 (relaxin family peptide receptor 3)	2	3.9 (active)	159	3.08	79.2
54	RXFP3 (relaxin family peptide receptor 3)	3	-0.629	69.4	-0.979	100
55	NPM3 (nucleophosmin/nucleoplasmin 3)	1	0.715	96.1	0.444	95.6
56	NPM3 (nucleophosmin/nucleoplasmin 3)	2	-0.267	76.6	0.206	81.1
57	NPM3 (nucleophosmin/nucleoplasmin 3)	3	2.08	123	1.36	96.2
